# Some of the results follow.
# Amino acid sequences for entries named in this document (tags omitted). A change or cut given only in a name is not applied to a line headed by its entry.
# UniProt Q9BQ75: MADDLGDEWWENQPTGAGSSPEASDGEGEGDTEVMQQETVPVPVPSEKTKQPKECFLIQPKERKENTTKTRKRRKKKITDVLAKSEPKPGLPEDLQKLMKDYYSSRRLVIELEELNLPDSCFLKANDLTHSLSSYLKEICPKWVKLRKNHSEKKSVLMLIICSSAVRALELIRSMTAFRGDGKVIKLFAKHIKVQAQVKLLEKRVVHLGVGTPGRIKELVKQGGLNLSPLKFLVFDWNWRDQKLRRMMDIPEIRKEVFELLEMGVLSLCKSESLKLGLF
# UniProt P12277: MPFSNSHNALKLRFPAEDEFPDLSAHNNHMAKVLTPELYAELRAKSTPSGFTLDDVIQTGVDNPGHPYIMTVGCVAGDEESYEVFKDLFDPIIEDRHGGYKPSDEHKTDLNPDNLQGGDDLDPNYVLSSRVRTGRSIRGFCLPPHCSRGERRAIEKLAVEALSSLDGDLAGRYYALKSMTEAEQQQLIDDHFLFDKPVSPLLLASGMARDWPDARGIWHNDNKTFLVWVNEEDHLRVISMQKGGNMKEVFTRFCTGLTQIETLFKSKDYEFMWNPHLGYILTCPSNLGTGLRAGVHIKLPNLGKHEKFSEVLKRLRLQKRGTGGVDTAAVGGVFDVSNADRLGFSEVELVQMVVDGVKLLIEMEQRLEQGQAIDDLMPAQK
# UniProt P39059: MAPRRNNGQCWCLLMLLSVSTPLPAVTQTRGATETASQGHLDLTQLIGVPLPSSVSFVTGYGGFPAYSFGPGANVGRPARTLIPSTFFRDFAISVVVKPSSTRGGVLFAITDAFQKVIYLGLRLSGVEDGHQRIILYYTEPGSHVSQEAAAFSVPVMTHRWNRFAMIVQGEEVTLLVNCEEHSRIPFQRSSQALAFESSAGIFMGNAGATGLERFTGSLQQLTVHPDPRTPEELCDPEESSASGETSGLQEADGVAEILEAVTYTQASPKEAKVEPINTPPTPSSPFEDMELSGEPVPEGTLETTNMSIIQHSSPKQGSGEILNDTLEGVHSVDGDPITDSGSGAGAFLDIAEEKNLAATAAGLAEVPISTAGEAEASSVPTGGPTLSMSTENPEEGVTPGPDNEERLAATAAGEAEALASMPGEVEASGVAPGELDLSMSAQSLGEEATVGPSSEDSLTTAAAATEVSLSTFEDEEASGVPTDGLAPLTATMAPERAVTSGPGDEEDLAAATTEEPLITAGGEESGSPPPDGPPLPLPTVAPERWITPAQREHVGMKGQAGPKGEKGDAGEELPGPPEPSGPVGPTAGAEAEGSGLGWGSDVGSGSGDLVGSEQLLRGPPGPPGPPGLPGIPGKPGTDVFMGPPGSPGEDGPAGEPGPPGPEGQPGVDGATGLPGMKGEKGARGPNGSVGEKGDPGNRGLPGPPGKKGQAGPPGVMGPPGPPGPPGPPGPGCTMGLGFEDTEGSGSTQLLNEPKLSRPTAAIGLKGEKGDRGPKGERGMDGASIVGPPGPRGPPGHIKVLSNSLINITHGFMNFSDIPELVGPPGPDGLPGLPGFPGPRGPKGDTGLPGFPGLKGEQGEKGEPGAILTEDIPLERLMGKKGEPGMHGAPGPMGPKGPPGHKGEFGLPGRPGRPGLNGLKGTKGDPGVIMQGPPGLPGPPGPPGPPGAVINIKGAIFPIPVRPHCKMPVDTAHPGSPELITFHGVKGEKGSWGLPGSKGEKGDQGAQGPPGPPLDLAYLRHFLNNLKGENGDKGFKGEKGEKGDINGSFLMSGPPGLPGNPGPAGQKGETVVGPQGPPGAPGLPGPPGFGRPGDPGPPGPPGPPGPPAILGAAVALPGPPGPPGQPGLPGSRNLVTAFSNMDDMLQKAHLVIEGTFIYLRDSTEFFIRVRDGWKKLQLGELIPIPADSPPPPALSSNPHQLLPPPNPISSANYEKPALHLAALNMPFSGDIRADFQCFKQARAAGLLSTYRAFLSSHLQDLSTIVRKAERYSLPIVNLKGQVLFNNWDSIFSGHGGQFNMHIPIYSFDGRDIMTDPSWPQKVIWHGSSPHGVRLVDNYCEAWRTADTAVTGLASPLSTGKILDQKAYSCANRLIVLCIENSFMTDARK
# UniProt P09497: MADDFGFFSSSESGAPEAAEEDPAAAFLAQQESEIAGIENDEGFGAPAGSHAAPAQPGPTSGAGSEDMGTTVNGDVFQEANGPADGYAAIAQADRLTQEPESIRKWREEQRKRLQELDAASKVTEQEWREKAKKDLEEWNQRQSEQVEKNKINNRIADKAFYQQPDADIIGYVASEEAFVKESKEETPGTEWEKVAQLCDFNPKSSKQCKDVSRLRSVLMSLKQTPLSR
# UniProt Q8IWV2: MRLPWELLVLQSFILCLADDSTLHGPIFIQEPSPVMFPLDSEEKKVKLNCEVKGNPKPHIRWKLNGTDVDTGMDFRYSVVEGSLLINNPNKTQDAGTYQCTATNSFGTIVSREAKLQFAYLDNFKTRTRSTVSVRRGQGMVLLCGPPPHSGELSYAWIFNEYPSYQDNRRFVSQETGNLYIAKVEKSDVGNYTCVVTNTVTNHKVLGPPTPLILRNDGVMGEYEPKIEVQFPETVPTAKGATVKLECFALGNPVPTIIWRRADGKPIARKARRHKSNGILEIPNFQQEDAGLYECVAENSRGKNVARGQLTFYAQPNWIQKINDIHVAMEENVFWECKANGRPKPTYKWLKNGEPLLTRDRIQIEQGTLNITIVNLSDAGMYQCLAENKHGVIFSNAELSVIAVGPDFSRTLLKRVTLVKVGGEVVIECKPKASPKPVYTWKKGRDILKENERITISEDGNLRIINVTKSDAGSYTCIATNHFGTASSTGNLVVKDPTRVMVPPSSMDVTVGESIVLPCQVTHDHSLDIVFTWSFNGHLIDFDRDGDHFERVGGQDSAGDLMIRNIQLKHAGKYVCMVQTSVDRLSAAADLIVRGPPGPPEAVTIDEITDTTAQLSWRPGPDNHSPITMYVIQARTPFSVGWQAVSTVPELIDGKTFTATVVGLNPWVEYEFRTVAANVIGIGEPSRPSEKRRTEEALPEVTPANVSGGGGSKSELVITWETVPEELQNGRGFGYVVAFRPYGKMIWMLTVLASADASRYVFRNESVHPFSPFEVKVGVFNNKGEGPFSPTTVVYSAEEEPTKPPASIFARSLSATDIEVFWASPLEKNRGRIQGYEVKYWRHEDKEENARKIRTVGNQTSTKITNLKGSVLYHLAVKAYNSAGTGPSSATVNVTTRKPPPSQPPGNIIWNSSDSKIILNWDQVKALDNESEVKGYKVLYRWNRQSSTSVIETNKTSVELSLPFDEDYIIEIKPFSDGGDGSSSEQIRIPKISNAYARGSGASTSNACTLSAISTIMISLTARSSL
# UniProt Q14008: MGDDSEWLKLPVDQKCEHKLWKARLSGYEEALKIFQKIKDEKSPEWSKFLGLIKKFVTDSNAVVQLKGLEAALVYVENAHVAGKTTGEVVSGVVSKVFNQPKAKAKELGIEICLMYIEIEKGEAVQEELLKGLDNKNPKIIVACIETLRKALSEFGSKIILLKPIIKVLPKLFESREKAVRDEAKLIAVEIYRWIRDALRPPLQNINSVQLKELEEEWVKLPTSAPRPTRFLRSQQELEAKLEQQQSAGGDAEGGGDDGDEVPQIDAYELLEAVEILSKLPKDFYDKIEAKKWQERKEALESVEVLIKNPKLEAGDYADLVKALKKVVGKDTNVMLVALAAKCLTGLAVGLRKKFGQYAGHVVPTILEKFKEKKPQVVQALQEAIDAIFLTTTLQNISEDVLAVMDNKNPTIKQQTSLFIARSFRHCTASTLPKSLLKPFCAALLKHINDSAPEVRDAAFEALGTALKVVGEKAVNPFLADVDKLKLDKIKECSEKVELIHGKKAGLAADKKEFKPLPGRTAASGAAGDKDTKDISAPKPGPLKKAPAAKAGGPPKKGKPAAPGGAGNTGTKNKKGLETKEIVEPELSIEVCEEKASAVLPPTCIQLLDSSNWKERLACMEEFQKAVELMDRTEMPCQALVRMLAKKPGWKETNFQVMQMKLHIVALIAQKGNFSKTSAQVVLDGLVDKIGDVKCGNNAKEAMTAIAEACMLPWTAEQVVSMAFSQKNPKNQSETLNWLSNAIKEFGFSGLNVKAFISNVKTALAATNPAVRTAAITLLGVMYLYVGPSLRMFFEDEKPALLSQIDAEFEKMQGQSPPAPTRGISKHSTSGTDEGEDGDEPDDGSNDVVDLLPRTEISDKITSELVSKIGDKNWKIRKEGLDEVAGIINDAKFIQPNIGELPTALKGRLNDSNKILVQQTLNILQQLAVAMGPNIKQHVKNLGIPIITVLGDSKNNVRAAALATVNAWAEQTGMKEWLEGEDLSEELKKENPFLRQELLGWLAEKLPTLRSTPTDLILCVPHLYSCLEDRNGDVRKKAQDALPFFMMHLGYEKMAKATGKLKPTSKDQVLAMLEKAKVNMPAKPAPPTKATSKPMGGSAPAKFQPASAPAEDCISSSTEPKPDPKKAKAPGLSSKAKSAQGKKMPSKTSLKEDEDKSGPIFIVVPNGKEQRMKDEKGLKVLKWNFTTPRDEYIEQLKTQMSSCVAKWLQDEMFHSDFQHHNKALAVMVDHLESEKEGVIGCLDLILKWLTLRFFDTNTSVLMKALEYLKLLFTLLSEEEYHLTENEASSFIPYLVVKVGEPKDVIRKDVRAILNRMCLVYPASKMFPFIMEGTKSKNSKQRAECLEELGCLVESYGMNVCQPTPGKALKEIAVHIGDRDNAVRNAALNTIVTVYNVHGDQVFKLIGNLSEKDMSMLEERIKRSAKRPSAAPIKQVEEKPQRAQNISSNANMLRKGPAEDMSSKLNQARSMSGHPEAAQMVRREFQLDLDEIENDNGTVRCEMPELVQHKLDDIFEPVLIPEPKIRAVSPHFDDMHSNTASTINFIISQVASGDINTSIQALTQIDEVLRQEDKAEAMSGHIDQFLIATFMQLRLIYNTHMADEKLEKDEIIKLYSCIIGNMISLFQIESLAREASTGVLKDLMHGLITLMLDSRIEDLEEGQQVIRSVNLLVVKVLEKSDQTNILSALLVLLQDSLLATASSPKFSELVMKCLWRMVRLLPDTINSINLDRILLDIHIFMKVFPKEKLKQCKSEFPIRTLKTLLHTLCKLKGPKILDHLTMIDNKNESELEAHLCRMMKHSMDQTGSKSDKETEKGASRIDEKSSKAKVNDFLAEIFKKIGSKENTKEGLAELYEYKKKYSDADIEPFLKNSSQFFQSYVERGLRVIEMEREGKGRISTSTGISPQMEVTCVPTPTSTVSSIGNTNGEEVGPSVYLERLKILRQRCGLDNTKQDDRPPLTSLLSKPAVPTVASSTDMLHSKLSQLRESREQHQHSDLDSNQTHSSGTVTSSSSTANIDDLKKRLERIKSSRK
# UniProt Q9H9A5, whole entry, looked up: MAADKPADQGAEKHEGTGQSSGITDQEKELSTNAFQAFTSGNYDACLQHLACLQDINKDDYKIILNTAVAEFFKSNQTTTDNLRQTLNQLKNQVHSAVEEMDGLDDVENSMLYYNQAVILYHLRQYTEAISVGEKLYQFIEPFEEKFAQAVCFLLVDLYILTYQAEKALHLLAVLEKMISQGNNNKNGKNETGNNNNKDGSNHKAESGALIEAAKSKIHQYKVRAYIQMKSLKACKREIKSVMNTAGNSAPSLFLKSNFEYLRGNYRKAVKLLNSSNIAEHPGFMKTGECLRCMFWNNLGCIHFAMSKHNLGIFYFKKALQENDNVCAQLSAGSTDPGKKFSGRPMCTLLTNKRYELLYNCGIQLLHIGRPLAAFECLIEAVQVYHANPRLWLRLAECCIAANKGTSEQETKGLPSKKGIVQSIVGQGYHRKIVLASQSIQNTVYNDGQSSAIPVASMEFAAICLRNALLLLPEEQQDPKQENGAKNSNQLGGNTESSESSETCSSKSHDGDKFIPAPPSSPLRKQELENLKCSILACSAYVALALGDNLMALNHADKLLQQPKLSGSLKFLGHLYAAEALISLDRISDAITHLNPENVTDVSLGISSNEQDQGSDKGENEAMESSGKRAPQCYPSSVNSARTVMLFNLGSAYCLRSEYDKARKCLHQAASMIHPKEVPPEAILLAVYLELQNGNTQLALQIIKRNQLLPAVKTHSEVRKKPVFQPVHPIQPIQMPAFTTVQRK
# UniProt Q8NFW8: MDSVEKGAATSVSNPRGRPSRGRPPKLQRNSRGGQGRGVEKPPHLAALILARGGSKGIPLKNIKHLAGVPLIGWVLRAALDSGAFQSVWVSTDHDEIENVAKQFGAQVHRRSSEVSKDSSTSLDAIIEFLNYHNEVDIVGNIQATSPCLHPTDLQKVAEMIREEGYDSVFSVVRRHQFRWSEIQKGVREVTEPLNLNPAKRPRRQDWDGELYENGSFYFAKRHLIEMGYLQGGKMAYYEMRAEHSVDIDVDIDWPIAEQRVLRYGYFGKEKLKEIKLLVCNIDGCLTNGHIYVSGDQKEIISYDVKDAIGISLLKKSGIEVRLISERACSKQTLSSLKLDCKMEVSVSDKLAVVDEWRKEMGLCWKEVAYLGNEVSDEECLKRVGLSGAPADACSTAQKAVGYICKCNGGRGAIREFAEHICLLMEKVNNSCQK
# UniProt Q9NRP2: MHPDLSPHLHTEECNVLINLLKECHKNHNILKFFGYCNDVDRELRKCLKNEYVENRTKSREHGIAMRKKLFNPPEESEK
# Compound: CC[C@@H]1C(=O)N(C)c2cnc(Nc3ccc(C(=O)N[C@H]4CC[C@H](N5CCN(CC6CC6)CC5)CC4)cc3OC)nc2N1C(C)C [volasertib]
# Test: log2 fold change, soluble protein after heating vs DMSO (PISA); higher = thermal stabilisation; K562 cells, 10 uM, 30 min; active = over 0.2 and 3.5 SD of the protein, either way, in both replicates (recomputed)
# Summary of the method: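 Thermal stability values are relative to control samples and come from duplicates. They are expressed as log2 fold changes. For measurement, K562 cells (2×10^6 cells/mL) received 10 μM compound for 30 min, and aliquots were heated for 3 min over 48°C-58°C, pooled, and extracted at 4°C in PBS with 0.5% NP-40. Soluble protein, the supernatant after 21,000xg for 90 min, was quantified by TMTpro 16plex LC-MS/MS with equalised channel sums.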
row,Target,log2 fold change
1,CISD3 (UniProt P0C7P0),inactive: -0.007
2,CLTA isoform 2 (UniProt P09496),inactive: 0.242
3,CMSS1 (UniProt Q9BQ75),inactive: -0.137
4,CNOT8 (UniProt Q9UFF9),inactive: -0.057
5,COA3 (UniProt Q9Y2R0),inactive: 0.085
6,CKB (UniProt P12277),active: 0.265
7,CNP (UniProt P09543),inactive: -0.126
8,CNOT6L (UniProt Q96LI5),inactive: -0.064
9,COL15A1 (UniProt P39059),inactive: -0.224
10,CLCN7 (UniProt P51798),inactive: -0.297
11,CLEC16A (UniProt Q2KHT3),inactive: 0.029
12,CLTB (UniProt P09497),inactive: 0.134
13,COA7 (UniProt Q96BR5),inactive: 0.024
14,CLASP1 (UniProt Q7Z460),inactive: -0.359
15,CNTN4 (UniProt Q8IWV2),inactive: -0.14
16,CKAP5 (UniProt Q14008),inactive: -0.307
17,CNOT10 isoform 6 (UniProt Q9H9A5),inactive: -0.095

# Some values from the results shown.
# log2 fold change with CLEC16A (UniProt Q2KHT3) is entered as inactive: 0.029
# log2 fold change with CLTA isoform 2 (UniProt P09496) is entered as inactive: 0.242
# log2 fold change with CMSS1 (UniProt Q9BQ75) is entered as inactive: -0.137

# Following part:

row,Target,log2 fold change
1,CLIC1 (UniProt O00299),inactive: -0.038
2,CLNS1A (UniProt P54105),inactive: -0.079
3,CMAS (UniProt Q8NFW8),inactive: 0.037
4,CKMT1A (UniProt P12532),inactive: 0.056
5,CLIP1 isoform 1 (UniProt P30622),inactive: 0.026
6,CIAO2A (UniProt Q9H5X1),inactive: 0
7,CNBP isoform 6 (UniProt P62633),inactive: 0.101
8,CMPK1 (UniProt P30085),inactive: 0.08
9,CLPP (UniProt Q16740),inactive: 0.035
10,CLPTM1L (UniProt Q96KA5),inactive: -0.185
11,CMC2 (UniProt Q9NRP2),inactive: 0.076
12,CISD2 (UniProt Q8N5K1),inactive: 0.052
13,CMTM6 (UniProt Q9NX76),inactive: 0.035
14,CISD1 (UniProt Q9NZ45),inactive: 0.067
15,CLPB isoform 2 (UniProt Q9H078),inactive: -0.006
16,CNOT9 isoform 2 (UniProt Q92600),inactive: -0.165
